# Laboratory results published in patent EP2801619A1 (Fondazione Edmund Mach, dated 2014).
# These are yes or no findings as the source states them, for the method shown. Some entries that bind do so weakly or less than the wild type.
# T1: CURVATURE THYLAKOID1C (CURT1C) of Arabidopsis thaliana, endogenous protein in thylakoid membranes (Arabidopsis thaliana) (UniProt Q9M812)
# T1 sequence: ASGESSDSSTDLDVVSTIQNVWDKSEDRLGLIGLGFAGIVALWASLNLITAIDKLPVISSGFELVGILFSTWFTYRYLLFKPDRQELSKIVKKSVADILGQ
# T2: CURVATURE THYLAKOID1B (CURT1B) of Arabidopsis thaliana, endogenous protein in thylakoid membranes (Arabidopsis thaliana) (UniProt Q8LCA1)
# T2 sequence: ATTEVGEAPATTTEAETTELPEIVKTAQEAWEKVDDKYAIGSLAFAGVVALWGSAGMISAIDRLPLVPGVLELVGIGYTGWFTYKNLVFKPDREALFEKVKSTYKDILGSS
# Experiments:
# [1] = target: T1, CURVATURE THYLAKOID1C (CURT1C) of Arabidopsis thaliana, endogenous protein in thylakoid membranes (Arabidopsis thaliana); assay: 2D-BN/SDS-PAGE of thylakoid multiprotein complexes (Fig. 5b)
# [2] = target: T1, CURVATURE THYLAKOID1C (CURT1C) of Arabidopsis thaliana, endogenous protein in thylakoid membranes (Arabidopsis thaliana); assay: 2D BN/SDS-PAGE of digitonin-solubilised thylakoid complexes, immunoblot (co-migration)
# [3] = target: T2, CURVATURE THYLAKOID1B (CURT1B) of Arabidopsis thaliana, endogenous protein in thylakoid membranes (Arabidopsis thaliana); assay: chemical crosslinking (BS3) of thylakoid proteins, SDS-PAGE and immunoblot, WT against curt1 mutants
# [4] = target: T2, CURVATURE THYLAKOID1B (CURT1B) of Arabidopsis thaliana, endogenous protein in thylakoid membranes (Arabidopsis thaliana); assay: 2D-BN/SDS-PAGE of thylakoid multiprotein complexes (Fig. 5b)
# [5] = target: T2, CURVATURE THYLAKOID1B (CURT1B) of Arabidopsis thaliana, endogenous protein in thylakoid membranes (Arabidopsis thaliana); assay: 2D BN/SDS-PAGE of digitonin-solubilised thylakoid complexes, immunoblot (co-migration)
# [6] = target: CURT1A translated in an E. coli S12 cell-free system in the presence of liposomes (CURT1A proteoliposomes) (Arabidopsis thaliana) (UniProt O04616); assay: crosslinking of CURT1A proteoliposomes with DSP or DTSSP, SDS-PAGE and Western analysis
# [7] = target: CURT1A translated in an E. coli S12 cell-free system in the presence of liposomes (CURT1A proteoliposomes) (Arabidopsis thaliana) (UniProt O04616); assay: crosslinking of CURT1A proteoliposomes with DSP or DTSSP, SDS-PAGE and Western analysis (Fig. 17c)
binding [1],binding [2],binding [3],binding [4],binding [5],binding [6],binding [7],Binder
binds,binds,binds,,,,,"CURVATURE THYLAKOID1B (CURT1B) of Arabidopsis thaliana, endogenous protein in thylakoid membranes (protein) ATTEVGEAPATTTEAETTELPEIVKTAQEAWEKVDDKYAIGSLAFAGVVALWGSAGMISAIDRLPLVPGVLELVGIGYTGWFTYKNLVFKPDREALFEKVKSTYKDILGSS"
,,binds,binds,binds,,,"CURVATURE THYLAKOID1A (CURT1A) of Arabidopsis thaliana, endogenous protein in thylakoid membranes (other, Thylakoid membrane protein as found in plant thylakoids; also called At4g01150) ASSEETSSIDTNELITDLKEKWDGLENKSTVLIYGGGAIVAVWLSSIVVGAINSVPLLPKVMELVGLGYTGWFVYRYLLFKSSRKELAEDIESLKKKIAGSE"
,,,,,binds,binds,CURT1A translated in an E. coli S12 cell-free system in the presence of liposomes (CURT1A proteoliposomes) (protein) ASSEETSSIDTNELITDLKEKWDGLENKSTVLIYGGGAIVAVWLSSIVVGAINSVPLLPKVMELVGLGYTGWFVYRYLLFKSSRKELAEDIESLKKKIAGSE
